The supplement of paper PMC10849652
The list shows a part of the results. Residues, ends and D or L forms follow the SMILES beside them. *: point of attachment. Cbz = O=C(OCc1ccccc1)*

Amino acid sequences for entries named in this document (tags omitted). A change or cut given only in a name is not applied to a line headed by its entry.
UniProt P25685, whole entry, looked up: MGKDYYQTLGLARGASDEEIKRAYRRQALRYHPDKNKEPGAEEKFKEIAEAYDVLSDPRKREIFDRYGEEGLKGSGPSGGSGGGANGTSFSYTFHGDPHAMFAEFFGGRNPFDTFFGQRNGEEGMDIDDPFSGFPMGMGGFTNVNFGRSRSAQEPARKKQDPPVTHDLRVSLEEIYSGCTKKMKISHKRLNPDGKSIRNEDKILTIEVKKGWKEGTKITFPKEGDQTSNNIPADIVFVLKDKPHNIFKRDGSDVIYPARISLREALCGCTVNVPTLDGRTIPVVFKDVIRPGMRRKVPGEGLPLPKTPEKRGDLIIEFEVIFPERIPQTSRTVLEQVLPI
UniProt Q99848: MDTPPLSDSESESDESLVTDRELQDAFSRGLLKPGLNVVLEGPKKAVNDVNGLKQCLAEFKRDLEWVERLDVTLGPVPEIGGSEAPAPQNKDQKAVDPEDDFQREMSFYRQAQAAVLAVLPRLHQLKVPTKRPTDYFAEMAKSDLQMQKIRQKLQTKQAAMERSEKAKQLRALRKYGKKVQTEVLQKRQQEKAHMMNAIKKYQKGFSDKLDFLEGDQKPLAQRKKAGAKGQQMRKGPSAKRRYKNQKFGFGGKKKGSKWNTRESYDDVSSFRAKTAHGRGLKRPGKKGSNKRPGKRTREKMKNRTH
UniProt Q8NBA8: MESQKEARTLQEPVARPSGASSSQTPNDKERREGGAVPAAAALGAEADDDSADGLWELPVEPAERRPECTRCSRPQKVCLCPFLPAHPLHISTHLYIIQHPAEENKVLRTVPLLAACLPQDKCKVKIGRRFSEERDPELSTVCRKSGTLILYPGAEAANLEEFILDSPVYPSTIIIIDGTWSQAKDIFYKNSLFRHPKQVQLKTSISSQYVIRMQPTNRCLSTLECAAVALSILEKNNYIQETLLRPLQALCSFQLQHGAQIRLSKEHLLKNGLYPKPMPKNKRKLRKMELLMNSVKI
UniProt Q8N5C7: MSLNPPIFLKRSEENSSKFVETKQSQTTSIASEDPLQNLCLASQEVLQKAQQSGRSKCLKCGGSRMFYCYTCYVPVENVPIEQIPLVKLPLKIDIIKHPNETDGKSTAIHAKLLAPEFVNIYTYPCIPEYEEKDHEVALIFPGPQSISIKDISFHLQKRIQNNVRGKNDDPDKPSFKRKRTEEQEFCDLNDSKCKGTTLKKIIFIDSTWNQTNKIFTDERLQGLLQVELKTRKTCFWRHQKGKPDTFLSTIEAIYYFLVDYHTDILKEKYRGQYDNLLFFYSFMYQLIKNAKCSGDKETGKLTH
UniProt Q9H2P9: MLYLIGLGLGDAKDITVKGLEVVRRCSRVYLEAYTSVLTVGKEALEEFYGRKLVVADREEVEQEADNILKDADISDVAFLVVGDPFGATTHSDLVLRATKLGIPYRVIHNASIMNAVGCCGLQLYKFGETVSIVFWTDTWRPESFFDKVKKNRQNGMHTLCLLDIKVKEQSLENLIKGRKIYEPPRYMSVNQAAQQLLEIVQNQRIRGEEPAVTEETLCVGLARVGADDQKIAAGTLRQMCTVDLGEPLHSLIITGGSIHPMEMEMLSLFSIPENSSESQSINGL
UniProt O75923: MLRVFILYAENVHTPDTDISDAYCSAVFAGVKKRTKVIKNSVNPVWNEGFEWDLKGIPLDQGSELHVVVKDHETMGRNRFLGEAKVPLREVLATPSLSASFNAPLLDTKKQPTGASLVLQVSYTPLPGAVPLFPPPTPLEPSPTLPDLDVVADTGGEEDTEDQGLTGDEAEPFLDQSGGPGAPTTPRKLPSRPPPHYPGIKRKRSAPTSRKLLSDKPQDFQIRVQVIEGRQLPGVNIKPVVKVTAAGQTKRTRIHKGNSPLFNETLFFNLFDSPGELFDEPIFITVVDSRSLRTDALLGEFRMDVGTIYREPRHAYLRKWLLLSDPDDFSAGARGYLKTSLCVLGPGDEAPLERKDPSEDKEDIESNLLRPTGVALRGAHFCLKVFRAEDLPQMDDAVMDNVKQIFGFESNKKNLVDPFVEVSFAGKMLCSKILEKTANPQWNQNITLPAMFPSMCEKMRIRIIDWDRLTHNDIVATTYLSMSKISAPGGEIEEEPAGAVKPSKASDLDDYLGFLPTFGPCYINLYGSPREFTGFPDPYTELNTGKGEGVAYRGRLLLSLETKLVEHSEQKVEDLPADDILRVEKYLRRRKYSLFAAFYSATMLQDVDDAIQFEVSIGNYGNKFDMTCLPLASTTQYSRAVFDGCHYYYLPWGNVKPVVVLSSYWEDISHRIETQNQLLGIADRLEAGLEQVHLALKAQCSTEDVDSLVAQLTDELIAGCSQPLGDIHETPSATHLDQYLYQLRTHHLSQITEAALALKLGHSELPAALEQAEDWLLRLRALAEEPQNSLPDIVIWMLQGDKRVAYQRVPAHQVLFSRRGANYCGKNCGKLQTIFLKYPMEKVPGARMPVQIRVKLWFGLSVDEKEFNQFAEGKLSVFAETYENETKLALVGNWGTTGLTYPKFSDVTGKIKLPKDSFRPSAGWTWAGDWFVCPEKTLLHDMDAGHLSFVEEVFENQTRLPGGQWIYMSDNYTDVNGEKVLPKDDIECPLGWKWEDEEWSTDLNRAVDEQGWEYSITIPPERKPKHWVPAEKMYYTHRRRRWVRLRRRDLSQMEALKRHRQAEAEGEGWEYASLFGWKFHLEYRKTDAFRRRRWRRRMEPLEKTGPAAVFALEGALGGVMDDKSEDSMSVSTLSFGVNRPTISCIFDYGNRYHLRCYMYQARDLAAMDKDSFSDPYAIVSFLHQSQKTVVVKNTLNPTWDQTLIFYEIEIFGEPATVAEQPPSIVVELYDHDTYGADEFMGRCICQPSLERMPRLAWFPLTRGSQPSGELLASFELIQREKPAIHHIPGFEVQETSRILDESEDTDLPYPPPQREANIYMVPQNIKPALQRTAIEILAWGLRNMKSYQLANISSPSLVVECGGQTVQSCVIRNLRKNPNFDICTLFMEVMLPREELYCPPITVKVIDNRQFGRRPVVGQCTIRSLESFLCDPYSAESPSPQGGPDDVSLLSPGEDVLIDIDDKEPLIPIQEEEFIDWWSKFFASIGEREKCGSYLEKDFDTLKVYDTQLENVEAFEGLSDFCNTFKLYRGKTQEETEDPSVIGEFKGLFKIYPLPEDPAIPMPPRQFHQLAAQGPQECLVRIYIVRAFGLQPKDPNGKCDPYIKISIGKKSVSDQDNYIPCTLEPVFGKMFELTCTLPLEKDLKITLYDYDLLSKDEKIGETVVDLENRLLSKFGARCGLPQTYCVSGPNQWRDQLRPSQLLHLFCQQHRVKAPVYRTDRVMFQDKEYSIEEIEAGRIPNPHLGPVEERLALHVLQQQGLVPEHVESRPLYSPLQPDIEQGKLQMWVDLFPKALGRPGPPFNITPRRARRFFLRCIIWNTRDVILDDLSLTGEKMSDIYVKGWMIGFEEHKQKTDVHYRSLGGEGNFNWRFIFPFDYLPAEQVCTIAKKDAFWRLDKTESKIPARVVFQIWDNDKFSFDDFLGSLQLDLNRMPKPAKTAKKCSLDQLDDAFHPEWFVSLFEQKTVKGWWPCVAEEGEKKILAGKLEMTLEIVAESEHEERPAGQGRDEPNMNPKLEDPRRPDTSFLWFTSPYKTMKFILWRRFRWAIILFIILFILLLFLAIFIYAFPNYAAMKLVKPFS
UniProt Q6P2E9: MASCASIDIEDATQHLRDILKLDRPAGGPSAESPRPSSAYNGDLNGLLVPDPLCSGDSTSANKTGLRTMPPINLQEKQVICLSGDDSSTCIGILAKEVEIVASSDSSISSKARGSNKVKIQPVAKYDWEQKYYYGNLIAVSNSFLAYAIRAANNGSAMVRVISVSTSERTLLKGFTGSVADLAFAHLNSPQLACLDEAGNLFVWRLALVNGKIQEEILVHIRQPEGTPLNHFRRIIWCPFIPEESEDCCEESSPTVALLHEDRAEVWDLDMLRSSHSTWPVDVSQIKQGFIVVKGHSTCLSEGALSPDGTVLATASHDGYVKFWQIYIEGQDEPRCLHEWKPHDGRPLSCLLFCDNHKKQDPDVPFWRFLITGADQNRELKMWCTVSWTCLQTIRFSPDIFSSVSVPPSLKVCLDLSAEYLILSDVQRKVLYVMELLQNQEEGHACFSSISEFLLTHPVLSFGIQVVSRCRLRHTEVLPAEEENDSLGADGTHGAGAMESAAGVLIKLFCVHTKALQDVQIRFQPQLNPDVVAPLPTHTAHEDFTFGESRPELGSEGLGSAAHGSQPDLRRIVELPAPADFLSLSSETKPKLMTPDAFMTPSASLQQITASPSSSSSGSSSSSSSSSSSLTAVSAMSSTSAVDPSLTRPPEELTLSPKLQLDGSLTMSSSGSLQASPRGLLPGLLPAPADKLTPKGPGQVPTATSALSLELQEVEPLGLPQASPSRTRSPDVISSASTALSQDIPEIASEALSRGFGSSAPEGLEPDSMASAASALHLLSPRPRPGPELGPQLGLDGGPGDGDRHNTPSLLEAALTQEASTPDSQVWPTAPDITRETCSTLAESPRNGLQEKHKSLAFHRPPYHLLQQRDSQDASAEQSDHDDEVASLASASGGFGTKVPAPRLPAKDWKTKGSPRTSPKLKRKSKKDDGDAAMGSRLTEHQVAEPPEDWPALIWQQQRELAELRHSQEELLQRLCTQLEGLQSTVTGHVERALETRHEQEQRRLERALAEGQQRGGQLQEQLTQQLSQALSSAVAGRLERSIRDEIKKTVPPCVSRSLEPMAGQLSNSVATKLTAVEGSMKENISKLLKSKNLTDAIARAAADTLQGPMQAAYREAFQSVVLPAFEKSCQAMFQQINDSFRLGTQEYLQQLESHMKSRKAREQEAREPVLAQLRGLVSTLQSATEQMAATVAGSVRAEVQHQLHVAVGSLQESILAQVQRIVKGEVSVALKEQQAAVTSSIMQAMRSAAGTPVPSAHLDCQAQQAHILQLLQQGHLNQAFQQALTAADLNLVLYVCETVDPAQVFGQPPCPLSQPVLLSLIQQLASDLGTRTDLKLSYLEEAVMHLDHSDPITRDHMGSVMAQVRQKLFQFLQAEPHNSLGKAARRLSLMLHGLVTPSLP
UniProt Q9NX74: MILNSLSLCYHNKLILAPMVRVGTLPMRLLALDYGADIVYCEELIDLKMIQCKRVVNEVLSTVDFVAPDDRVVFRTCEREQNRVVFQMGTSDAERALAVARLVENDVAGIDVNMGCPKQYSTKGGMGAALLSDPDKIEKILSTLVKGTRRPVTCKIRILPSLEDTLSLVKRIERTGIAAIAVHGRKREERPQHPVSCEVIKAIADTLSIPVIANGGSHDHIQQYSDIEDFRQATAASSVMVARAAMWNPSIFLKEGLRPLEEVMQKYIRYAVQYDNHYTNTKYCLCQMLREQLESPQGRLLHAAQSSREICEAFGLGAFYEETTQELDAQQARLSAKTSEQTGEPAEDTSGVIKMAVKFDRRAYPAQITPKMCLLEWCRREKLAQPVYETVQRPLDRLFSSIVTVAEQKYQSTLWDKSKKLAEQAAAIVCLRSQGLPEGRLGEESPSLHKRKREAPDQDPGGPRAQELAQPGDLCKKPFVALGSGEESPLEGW
UniProt O77932: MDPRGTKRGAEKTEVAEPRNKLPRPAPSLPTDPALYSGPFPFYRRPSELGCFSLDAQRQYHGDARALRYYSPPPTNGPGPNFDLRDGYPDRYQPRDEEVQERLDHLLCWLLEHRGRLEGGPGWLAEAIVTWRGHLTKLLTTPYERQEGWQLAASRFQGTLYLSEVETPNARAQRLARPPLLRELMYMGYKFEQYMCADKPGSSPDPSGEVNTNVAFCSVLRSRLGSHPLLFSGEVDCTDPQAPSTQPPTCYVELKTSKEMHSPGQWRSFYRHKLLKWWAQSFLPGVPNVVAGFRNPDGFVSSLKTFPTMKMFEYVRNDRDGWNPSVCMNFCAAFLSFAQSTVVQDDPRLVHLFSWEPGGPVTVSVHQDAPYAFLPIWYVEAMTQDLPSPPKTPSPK
UniProt Q99615: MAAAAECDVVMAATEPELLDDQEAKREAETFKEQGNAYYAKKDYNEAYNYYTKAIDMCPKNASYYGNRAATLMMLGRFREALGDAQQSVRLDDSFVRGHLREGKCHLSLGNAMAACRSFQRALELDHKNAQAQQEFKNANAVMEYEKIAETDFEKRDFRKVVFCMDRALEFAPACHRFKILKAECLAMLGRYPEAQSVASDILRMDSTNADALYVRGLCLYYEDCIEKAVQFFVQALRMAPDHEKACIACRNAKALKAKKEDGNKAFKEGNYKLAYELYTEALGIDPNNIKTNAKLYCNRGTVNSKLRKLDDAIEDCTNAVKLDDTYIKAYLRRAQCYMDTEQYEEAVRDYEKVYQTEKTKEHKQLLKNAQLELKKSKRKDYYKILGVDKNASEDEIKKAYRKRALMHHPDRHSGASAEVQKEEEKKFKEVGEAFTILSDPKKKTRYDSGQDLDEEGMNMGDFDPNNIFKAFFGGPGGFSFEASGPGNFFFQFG

Tests used:
Test in all cases: log2 fold change, soluble protein after heating vs DMSO (PISA); higher = thermal stabilisation; K562 cells, 10 uM, 30 min; active = over 0.2 and 3.5 SD of the protein, either way, in both replicates (recomputed)
[1] = compound: C1COCCN1CCN2C3=CC=CC=C3N=C2NC(=O)C4=CC(=CC=C4)[N+](=O)[O-] [IRAK-1-4 Inhibitor I]
Summary of the method: (§1)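 K562 cells at 2×10^6 cells/mL were treated for 30 min with 10 μM compound, and aliquots were heated for 3 min over 48°C-58°C before pooling. Extraction used PBS with 0.5% NP-40 at 4°C, and soluble protein was the supernatant after 21,000xg for 90 min, measured by TMTpro 16plex LC-MS/MS with channel sums equalised. Thermal stability values, relative to control samples and from duplicates, are log2 fold changes.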

[2] = compound: C=CC(=O)N1CCC[C@@H](n2nc(-c3ccc(Oc4ccccc4)cc3)c3c(N)ncnc32)C1 [ibrutinib]
Summary of the method: as §1

[3] = compound: CC(=O)c1cnc2ccc(-c3cc(Cl)c(O)c(Cl)c3)nc2c1N[C@H]1CC[C@H](CN(C)C)CC1
Summary of the method: as §1

[4] = compound: CC(C)(C)Cn1c(N)nc2ccc(-c3[nH]c(C(C)(C)C)nc3-c3ccc(F)cc3)nc21 [ralimetinib]
Summary of the method: as §1

[5] = compound: CC(C)(O)CC(=O)NCCn1ccc2ncnc(Nc3ccc(Oc4cccc(C(F)(F)F)c4)c(Cl)c3)c21
Summary of the method: as §1

[6] = compound: CC(C)C1=C2N=C(C=C(N2N=C1)NCC3=CC=CC=C3)NCCCCCCN
Summary of the method: as §1

[7] = compound: CC(C)C[C@@H](C=O)NC(=O)[C@H](CC(C)C)NC(=O)[C@H](CC(C)C)NC(=O)OCc1ccccc1
Summary of the method: as §1

[8] = compound: CC(C)N(C[C@H]1O[C@@H](n2cnc3c(N)ncnc32)[C@H](O)[C@@H]1O)[C@H]1C[C@@H](CCc2nc3cc(C(C)(C)C)ccc3[nH]2)C1 [pinometostat]
Summary of the method: as §1

[9] = compound: CC1=C(C2=C(C=C1)C(=O)C3=CC=CC=C3N2CCCN)C
Summary of the method: as §1

[10] = compound: CC1=C(C=C(C=C1)NC(=O)C2=CC(=CC=C2)C(C)(C)C#N)NC3=CC4=C(C=C3)N=CN(C4=O)C
Summary of the method: as §1

[11] = compound: CC1=C(C=C(C=C1)NC(=O)C2=CC(=CC=C2)N(C)C)NC(=O)C3=CC=C(C=C3)O
Summary of the method: as §1

[12] = compound: CC1=CC=C(C=C1)SC2=C3C=C(SC3=CN=C2)C(=O)N
Summary of the method: as §1

[13] = compound: CC1=NC(=CC=C1)C2=C(N=C(N2)C(C)(C)C)C3=CC4=NC=CN=C4C=C3
Summary of the method: as §1

[14] = compound: CCCCN(Cc1ccc(C(=O)NO)cc1)C(=O)Nc1ccccc1 [Nexturastat A]
Summary of the method: as §1

[15] = compound: CCCS(=O)(=O)Nc1ccc(F)c(C(=O)c2c[nH]c3ncc(-c4ccc(Cl)cc4)cc23)c1F [vemurafenib]
Summary of the method: as §1

[16] = compound: CCCS(=O)(=O)Nc1ccc(F)c(C(=O)c2c[nH]c3ncc(Cl)cc23)c1F
Summary of the method: as §1

[17] = compound: CCCc1cc(C)[nH]c(=O)c1CNC(=O)c1cc(-c2ccnc(N3CCN(C)CC3)c2)cc2c1cnn2C(C)C
Summary of the method: as §1

[18] = compound: CCN(CC)Cc1ccc2cc(COC(=O)Nc3ccc(C(=O)NO)cc3)ccc2c1 [givinostat]
Summary of the method: as §1

[19] = compound: CCN(CCCOc1ccc2c(Nc3cc(CC(=O)Nc4cccc(F)c4)[nH]n3)ncnc2c1)CCOP(=O)(O)O [barasertib]
Summary of the method: as §1

[20] = compound: CC1=C(C(CC(=O)N1)C2=CC=C(C=C2)C(F)(F)F)C(=O)NC3=C(C=C4C(=C3)C=NN4)F
Summary of the method: as §1

| Target | log2 fold change [1] | log2 fold change [2] | log2 fold change [3] | log2 fold change [4] | log2 fold change [5] | log2 fold change [6] | log2 fold change [7] | log2 fold change [8] | log2 fold change [9] | log2 fold change [10] | log2 fold change [11] | log2 fold change [12] | log2 fold change [13] | log2 fold change [14] | log2 fold change [15] | log2 fold change [16] | log2 fold change [17] | log2 fold change [18] | log2 fold change [19] | log2 fold change [20] |
| --- | --- | --- | --- | --- | --- | --- | --- | --- | --- | --- | --- | --- | --- | --- | --- | --- | --- | --- | --- | --- |
| DPP8 (UniProt Q6V1X1) | inactive: 0.002 | inactive: -0.001 | inactive: -0.035 | inactive: -0.046 | inactive: -0.005 | inactive: 0.059 | inactive: 0.015 | inactive: -0.018 | inactive: 0.12 | inactive: -0.109 | inactive: -0.026 | inactive: -0.031 | inactive: 0.021 | inactive: 0.082 | inactive: -0.056 | inactive: -0.05 | inactive: -0.176 | inactive: -0.026 | inactive: 0.014 | – |
| DNAJB1 (UniProt P25685) | inactive: -0.059 | inactive: -0.011 | inactive: -0.017 | inactive: 0 | inactive: -0.012 | inactive: -0.015 | inactive: -0.065 | inactive: -0.086 | inactive: 0.022 | inactive: 0.015 | inactive: -0.045 | inactive: -0.003 | inactive: 0.086 | inactive: -0.03 | inactive: 0.009 | inactive: 0.028 | inactive: -0.051 | inactive: 0.024 | inactive: 0.024 | – |
| EBNA1BP2 (UniProt Q99848) | inactive: -0.143 | inactive: -0.013 | inactive: 0.013 | inactive: 0.27 | inactive: 0.124 | inactive: 0.213 | inactive: -0.026 | inactive: 0.439 | active: -1.4 | inactive: -0.014 | inactive: -0.033 | inactive: -0.07 | inactive: -0.153 | inactive: 0.438 | inactive: -0.042 | inactive: 0.004 | inactive: 0.113 | inactive: 0.174 | inactive: -0.187 | – |
| EEA1 (UniProt Q15075) | inactive: 0.037 | inactive: 0.002 | inactive: 0.02 | inactive: -0.068 | inactive: 0.013 | inactive: 0.025 | inactive: -0.022 | inactive: -0.041 | inactive: -0.004 | inactive: -0.027 | inactive: 0.009 | inactive: 0.009 | inactive: 0.011 | inactive: -0.035 | inactive: -0.024 | inactive: 0.003 | inactive: -0.036 | inactive: -0.01 | inactive: 0.009 | – |
| DNTTIP2 (UniProt Q5QJE6) | inactive: -0.027 | inactive: 0.045 | inactive: -0.265 | inactive: 0.089 | inactive: 0.046 | inactive: -0.234 | inactive: 0.046 | inactive: 0.266 | active: -0.975 | inactive: 0.033 | inactive: 0.028 | inactive: -0.087 | inactive: -0.061 | inactive: 0.151 | inactive: -0.015 | inactive: -0.064 | inactive: -0.1 | inactive: 0.057 | inactive: -0.062 | – |
| DTWD2 (UniProt Q8NBA8) | inactive: 0.094 | inactive: 0.001 | inactive: 0.009 | inactive: 0.092 | inactive: -0.07 | inactive: -0.179 | inactive: 0.003 | inactive: 0.082 | inactive: -0.004 | inactive: 0.019 | inactive: -0.025 | inactive: 0.197 | inactive: -0.048 | inactive: 0.009 | inactive: -0.079 | inactive: 0.043 | inactive: -0.006 | inactive: -0.139 | inactive: 0.056 | – |
| DNM2 (UniProt P50570) | inactive: 0.022 | inactive: 0.017 | inactive: -0.023 | inactive: -0.02 | inactive: -0.081 | inactive: -0.075 | inactive: 0.029 | inactive: -0.014 | inactive: 0.076 | inactive: -0.016 | inactive: -0.043 | inactive: 0.009 | inactive: 0.024 | inactive: -0.057 | inactive: 0.016 | inactive: 0.033 | inactive: -0.007 | inactive: 0.036 | inactive: 0.054 | – |
| DTWD1 (UniProt Q8N5C7) | inactive: 0.043 | inactive: 0.014 | inactive: 0.076 | inactive: 0 | inactive: -0.022 | inactive: 0.161 | inactive: -0.021 | inactive: -0.026 | inactive: 0.136 | inactive: 0.05 | inactive: -0.042 | inactive: 0.023 | inactive: 0.081 | inactive: -0.072 | inactive: 0.115 | inactive: -0.013 | inactive: 0.036 | inactive: -0.172 | inactive: -0.027 | – |
| DPH5 isoform 5 (UniProt Q9H2P9) | inactive: 0.036 | inactive: 0.025 | inactive: -0.01 | inactive: -0.018 | inactive: -0.053 | inactive: 0.045 | inactive: -0.071 | inactive: -0.009 | inactive: 0.027 | inactive: 0.009 | inactive: -0.01 | inactive: 0.046 | inactive: 0.042 | inactive: -0.079 | inactive: -0.041 | inactive: 0.087 | inactive: -0.045 | inactive: -0.105 | inactive: -0.006 | – |
| DYSF isoform 13 (UniProt O75923) | inactive: -0.177 | inactive: 0.118 | inactive: 0.047 | inactive: 0.131 | inactive: 0.049 | inactive: 0.2 | inactive: 0.088 | inactive: 0.17 | inactive: -0.109 | inactive: 0.064 | inactive: -0.017 | – | inactive: 0.115 | inactive: 0.306 | inactive: -0.009 | – | inactive: 0.088 | inactive: -0.115 | inactive: 0.013 | inactive: 0.174 |
| DRG2 (UniProt P55039) | inactive: 0.02 | inactive: -0.014 | inactive: -0.013 | inactive: -0.013 | inactive: -0.037 | inactive: 0.006 | inactive: 0.011 | inactive: -0.044 | inactive: 0.045 | inactive: 0.001 | inactive: 0 | inactive: 0.027 | inactive: 0.039 | inactive: 0.004 | inactive: 0.014 | inactive: 0.048 | inactive: -0.054 | inactive: -0.041 | inactive: 0.033 | inactive: -0.034 |
| DYNC1I2 isoform 5 (UniProt Q13409) | inactive: 0.022 | inactive: 0.016 | inactive: 0.022 | inactive: 0.013 | inactive: -0.003 | inactive: 0.041 | inactive: 0.062 | inactive: -0.019 | inactive: -0.032 | inactive: -0.008 | inactive: -0.03 | inactive: -0.006 | inactive: 0.028 | inactive: 0.043 | inactive: -0.009 | inactive: 0.005 | inactive: -0.007 | inactive: -0.005 | inactive: -0.013 | – |
| EDC4 (UniProt Q6P2E9) | inactive: -0.041 | inactive: -0.001 | active: -0.387 | inactive: 0.019 | inactive: 0.007 | inactive: -0.181 | inactive: 0.022 | inactive: 0.05 | inactive: -0.032 | inactive: 0.004 | inactive: -0.048 | inactive: -0.022 | inactive: -0.035 | inactive: 0.022 | inactive: 0.035 | inactive: 0.03 | inactive: 0.029 | inactive: 0.031 | inactive: 0.057 | – |
| DUS2 (UniProt Q9NX74) | inactive: 0.014 | inactive: 0.041 | inactive: -0.063 | inactive: 0.033 | inactive: -0.161 | inactive: 0.043 | inactive: 0.044 | inactive: -0.001 | inactive: -0.1 | inactive: -0.028 | inactive: -0.022 | inactive: -0.022 | inactive: 0.04 | inactive: -0.015 | inactive: -0.004 | inactive: 0.099 | inactive: 0.039 | inactive: 0.062 | inactive: -0.062 | – |
| DNASE2 (UniProt O00115) | inactive: 0.022 | inactive: 0.045 | inactive: 0.015 | inactive: -0.083 | inactive: -0.02 | inactive: -0.012 | inactive: -0.047 | inactive: -0.013 | inactive: -0.067 | inactive: -0.016 | inactive: 0.004 | inactive: -0.003 | inactive: 0.033 | inactive: -0.041 | inactive: 0.05 | inactive: -0.062 | inactive: -0.035 | inactive: -0.077 | inactive: -0.034 | inactive: 0.018 |
| DXO (UniProt O77932) | inactive: 0.011 | inactive: -0.005 | inactive: -0.07 | inactive: -0.084 | inactive: -0.188 | inactive: -0.067 | inactive: 0.062 | inactive: -0.028 | inactive: -0.016 | – | inactive: -0.012 | – | inactive: 0.099 | inactive: 0.216 | inactive: -0.029 | – | inactive: -0.011 | inactive: -0.09 | inactive: 0.023 | inactive: -0.019 |
| DNAJC7 (UniProt Q99615) | inactive: -0.041 | inactive: -0.012 | inactive: -0.007 | inactive: -0.014 | inactive: -0.022 | inactive: -0.117 | inactive: 0.023 | inactive: -0.034 | inactive: 0.04 | inactive: -0.006 | inactive: -0.037 | inactive: 0.029 | inactive: 0.042 | inactive: -0.01 | inactive: 0.029 | inactive: 0.098 | inactive: 0.02 | inactive: 0.032 | inactive: 0.064 | – |

Some values from the results shown:
Under log2 fold change [14], DNM2 (UniProt P50570) has the entry inactive: -0.057
Under log2 fold change [14], EEA1 (UniProt Q15075) has the entry inactive: -0.035
